Data taken from PubChem BioAssay AID250 (DTP/NCI, 2004).
The list is a part of this screen's results and no random one: it gathers tests that were run many times, whatever their T/C, doses with no T/C, and many T/C values between a quarter and a half above the control. Other doses and runs of a compound stand elsewhere. T/C is the treated group as % of the vehicle group. Where survival is the endpoint, this PubChem deposit counts one and a half times the control or more as active, and values a quarter to a half above the control carry no call in these data; other NCI protocols may use other cut-offs. Schedule codes are those of the source, taken here to give the interval after Q, in days (D) or hours (H), and the number of doses after X. Marks such as (2×) say how often a value occurs here. Some entries hold several experiments; the results are listed from low to high. Some schedule codes hold Z or #, which are not explained here. Some T/C values carry the count of animals alive at the toxicity check (mostly the fifth day); where none is given, no animal had died by that day.

Key:
[1] = test system: BDF1 mice, L1210 leukemia sc, survival T/C; experiment: NCI In Vivo Anticancer Drug Screen. Data for tumor model L1210 Leukemia (subcutaneous) in B6D2F1 (BDF1) mice; conditions: T/C endpoint: median survival time, higher T/C = longer survival
Procedure, shortened: (§1)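 Expressed as T/C: measurement in compound-treated, tumor-bearing mice relative to vehicle-treated control mice, based on survival or tumor size.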

[2] = test system: BDF1 mice, L1210 leukemia sc; experiment: as above; conditions: higher T/C = longer survival
Procedure, shortened: as §1

For `CN(C)/N=N/c1nc[nH]c1C(N)=O`, the T/C ([1]; dose: 108.0 mg/kg/injection, schedule: Q01DX009 (sc), vehicle: steroid suspending solution, evaluated on day 6) was 114 and 117 % of control, the T/C ([1]; dose: 108.0 mg/kg/injection, schedule: Q01DX009 (sc), vehicle: steroid suspending solution, evaluated on day 37) was 116 % of control and the T/C ([1]; dose: 108.0 mg/kg/injection, schedule: Q01DX009 (sc), vehicle: steroid suspending solution, evaluated on day 38) was 105 % of control. For the same compound, the T/C ([1]; dose: 108.0 mg/kg/injection, schedule: Q01DX015 (sc), vehicle: Klucel (hydroxypropylcellulose) (HPC), evaluated on day 7) was 104 and 110 % of control, the T/C ([1]; dose: 108.0 mg/kg/injection, schedule: Q01DX015 (sc), vehicle: Klucel (hydroxypropylcellulose) (HPC), evaluated on day 30) was 110 % of control and the T/C ([1]; dose: 108.0 mg/kg/injection, schedule: Q01DX015 (sc), vehicle: Klucel (hydroxypropylcellulose) (HPC), evaluated on day 64) was 100 % of control. The T/C ([1]; dose: 180.0 mg/kg/injection, schedule: Q01DX009 (sc), vehicle: steroid suspending solution, evaluated on day 38) was 110 % of control, the T/C ([1]; dose: 180.0 mg/kg/injection, schedule: Q01DX015 (sc), vehicle: Klucel (hydroxypropylcellulose) (HPC), evaluated on day 7) was 114 and 116 % of control and the T/C ([1]; dose: 180.0 mg/kg/injection, schedule: Q01DX015 (sc), vehicle: Klucel (hydroxypropylcellulose) (HPC), evaluated on day 30) was 116 % of control [7 of 8 alive]. For the same compound, the T/C ([1]; dose: 180.0 mg/kg/injection, schedule: Q01DX015 (sc), vehicle: Klucel (hydroxypropylcellulose) (HPC), evaluated on day 64) was 111 % of control, the T/C ([1]; dose: 300.0 mg/kg/injection, schedule: Q01DX009 (sc), vehicle: steroid suspending solution, evaluated on day 6) was 169 % of control and the T/C ([1]; dose: 300.0 mg/kg/injection, schedule: Q01DX009 (sc), vehicle: steroid suspending solution, evaluated on day 37) was 150 % of control. For the same compound, the T/C ([1]; dose: 300.0 mg/kg/injection, schedule: Q01DX009 (sc), vehicle: steroid suspending solution, evaluated on day 38) was 120 % of control, the T/C ([1]; dose: 300.0 mg/kg/injection, schedule: Q01DX015 (sc), vehicle: Klucel (hydroxypropylcellulose) (HPC), evaluated on day 7) was 122 and 123 % of control and the T/C ([1]; dose: 300.0 mg/kg/injection, schedule: Q01DX015 (sc), vehicle: Klucel (hydroxypropylcellulose) (HPC), evaluated on day 30) was 122 % of control. The T/C ([1]; dose: 300.0 mg/kg/injection, schedule: Q01DX015 (sc), vehicle: Klucel (hydroxypropylcellulose) (HPC), evaluated on day 64) was 122 % of control, the T/C ([1]; dose: 500.0 mg/kg/injection, schedule: Q01DX015 (sc), vehicle: Klucel (hydroxypropylcellulose) (HPC), evaluated on day 7) was 117 % of control and the T/C ([1]; dose: 500.0 mg/kg/injection, schedule: Q01DX015 (sc), vehicle: Klucel (hydroxypropylcellulose) (HPC), evaluated on day 30) was 117 % of control. The T/C ([1]; dose: 833.0 mg/kg/injection, schedule: Q01DX015 (sc), vehicle: Klucel (hydroxypropylcellulose) (HPC), evaluated on day 7) was 121 % of control (2×), the T/C ([1]; dose: 833.0 mg/kg/injection, schedule: Q01DX015 (sc), vehicle: Klucel (hydroxypropylcellulose) (HPC), evaluated on day 30) was 121 % of control and the T/C ([1]; dose: 833.0 mg/kg/injection, schedule: Q01DX015 (sc), vehicle: Klucel (hydroxypropylcellulose) (HPC), evaluated on day 64) was 122 % of control. For the same compound, the T/C ([2]; T/C endpoint: mean survival time, dose: 108.0 mg/kg/injection, schedule: Q01DX009 (sc), vehicle: steroid suspending solution) was 125 % of control, the T/C ([2]; T/C endpoint: mean survival time, dose: 180.0 mg/kg/injection, schedule: Q01DX009 (sc), vehicle: steroid suspending solution) was 142 % of control and the T/C ([2]; T/C endpoint: median survival time, dose: 65.0 mg/kg/injection, schedule: Q01DX017 (oral), vehicle: steroid suspending solution) was 127 % of control. The T/C ([2]; T/C endpoint: median survival time, dose: 108.0 mg/kg/injection, schedule: Q01DX009 (sc), vehicle: steroid suspending solution, evaluated on day 6) was 126 % of control, the T/C ([2]; T/C endpoint: median survival time, dose: 108.0 mg/kg/injection, schedule: Q01DX013 (sc), vehicle: other) was 127 % of control and the T/C ([2]; T/C endpoint: median survival time, dose: 108.0 mg/kg/injection, schedule: Q01DX017 (oral), vehicle: steroid suspending solution, evaluated on day 6) was 135 % of control. The T/C ([2]; T/C endpoint: median survival time, dose: 108.0 mg/kg/injection, schedule: Q01DX017 (oral), vehicle: steroid suspending solution, evaluated on day 47) was 138 % of control, the T/C ([2]; T/C endpoint: median survival time, dose: 108.0 mg/kg/injection, schedule: Q01DX Z (sc), vehicle: steroid suspending solution) was 127 % of control and the T/C ([2]; T/C endpoint: median survival time, dose: 180.0 mg/kg/injection, schedule: Q01DX009 (sc), vehicle: steroid suspending solution, evaluated on day 6) was 128, 130, 143 % of control. The T/C ([2]; T/C endpoint: median survival time, dose: 180.0 mg/kg/injection, schedule: Q01DX009 (sc), vehicle: steroid suspending solution, evaluated on day 37) was 133 % of control, the T/C ([2]; T/C endpoint: median survival time, dose: 180.0 mg/kg/injection, schedule: Q01DX013 (sc), vehicle: other) was 127 % of control and the T/C ([2]; T/C endpoint: median survival time, dose: 180.0 mg/kg/injection, schedule: Q01DX013 (sc), vehicle: steroid suspending solution, evaluated on day 6) was 133 % of control. For the same compound, the T/C ([2]; T/C endpoint: median survival time, dose: 180.0 mg/kg/injection, schedule: Q01DX013 (sc), vehicle: steroid suspending solution, evaluated on day 36) was 127 % of control, the T/C ([2]; T/C endpoint: median survival time, dose: 180.0 mg/kg/injection, schedule: Q01DX013 (sc), vehicle: steroid suspending solution, evaluated on day 40) was 131 % of control [7 of 8 alive] and the T/C ([2]; T/C endpoint: median survival time, dose: 180.0 mg/kg/injection, schedule: Q01DX017 (oral), vehicle: steroid suspending solution, evaluated on day 6) was 129 % of control. The T/C ([2]; T/C endpoint: median survival time, dose: 180.0 mg/kg/injection, schedule: Q01DX017 (oral), vehicle: steroid suspending solution, evaluated on day 47) was 133 % of control, the T/C ([2]; T/C endpoint: median survival time, dose: 180.0 mg/kg/injection, schedule: Q01DX Z (sc), vehicle: steroid suspending solution, evaluated on day 36) was 144 % of control and the T/C ([2]; T/C endpoint: median survival time, dose: 180.0 mg/kg/injection, schedule: Q01DX Z (sc), vehicle: steroid suspending solution, evaluated on day 40) was 126 % of control. For the same compound, the T/C ([2]; T/C endpoint: median survival time, dose: 180.0 mg/kg/injection, schedule: Q ##X015 (oral), vehicle: steroid suspending solution) was 125 % of control, the T/C ([2]; T/C endpoint: median survival time, dose: 180.0 mg/kg/injection, schedule: Q## X015 (oral), vehicle: steroid suspending solution) was 127 % of control and the T/C ([2]; T/C endpoint: median survival time, dose: 300.0 mg/kg/injection, schedule: Q01DX009 (sc), vehicle: other) was 125 % of control. The T/C ([2]; T/C endpoint: median survival time, dose: 300.0 mg/kg/injection, schedule: Q01DX009 (sc), vehicle: steroid suspending solution, evaluated on day 6) was 138 and 146 % of control, the T/C ([2]; T/C endpoint: median survival time, dose: 300.0 mg/kg/injection, schedule: Q01DX013 (sc), vehicle: other) was 130 % of control and the T/C ([2]; T/C endpoint: median survival time, dose: 300.0 mg/kg/injection, schedule: Q01DX013 (sc), vehicle: steroid suspending solution, evaluated on day 6) was 145 % of control. For the same compound, the T/C ([2]; T/C endpoint: median survival time, dose: 300.0 mg/kg/injection, schedule: Q01DX013 (sc), vehicle: steroid suspending solution, evaluated on day 36) was 127 % of control, the T/C ([2]; T/C endpoint: median survival time, dose: 300.0 mg/kg/injection, schedule: Q01DX013 (sc), vehicle: steroid suspending solution, evaluated on day 40) was 136 % of control and the T/C ([2]; T/C endpoint: median survival time, dose: 300.0 mg/kg/injection, schedule: Q01DX017 (oral), vehicle: steroid suspending solution, evaluated on day 6) was 141 % of control. For the same compound, the T/C ([2]; T/C endpoint: median survival time, dose: 300.0 mg/kg/injection, schedule: Q01DX017 (oral), vehicle: steroid suspending solution, evaluated on day 47) was 144 % of control, the T/C ([2]; T/C endpoint: median survival time, dose: 300.0 mg/kg/injection, schedule: Q01DX Z (sc), vehicle: steroid suspending solution) was 136 % of control and the T/C ([2]; T/C endpoint: median survival time, dose: 300.0 mg/kg/injection, schedule: Q ##X015 (oral), vehicle: steroid suspending solution) was 138 % of control. For the same compound, the T/C ([2]; T/C endpoint: median survival time, dose: 300.0 mg/kg/injection, schedule: Q## X015 (oral), vehicle: steroid suspending solution) was 138 % of control, the T/C ([2]; T/C endpoint: median survival time, dose: 500.0 mg/kg/injection, schedule: Q01DX009 (sc), vehicle: other) was 140 % of control and the T/C ([2]; T/C endpoint: median survival time, dose: 500.0 mg/kg/injection, schedule: Q01DX009 (sc), vehicle: steroid suspending solution, evaluated on day 6) was 141 % of control. The T/C ([2]; T/C endpoint: median survival time, dose: 500.0 mg/kg/injection, schedule: Q01DX009 (sc), vehicle: steroid suspending solution, evaluated on day 37) was 144 % of control, the T/C ([2]; T/C endpoint: median survival time, dose: 500.0 mg/kg/injection, schedule: Q01DX009 (sc), vehicle: steroid suspending solution, evaluated on day 38) was 135 % of control and the T/C ([2]; T/C endpoint: median survival time, dose: 500.0 mg/kg/injection, schedule: Q01DX015 (sc), vehicle: Klucel (hydroxypropylcellulose) (HPC), evaluated on day 7) was 141 % of control. The T/C ([2]; T/C endpoint: median survival time, dose: 500.0 mg/kg/injection, schedule: Q01DX015 (sc), vehicle: Klucel (hydroxypropylcellulose) (HPC), evaluated on day 64) was 138 % of control, the T/C ([2]; T/C endpoint: median survival time, dose: 500.0 mg/kg/injection, schedule: Q01DX017 (oral), vehicle: steroid suspending solution) was 148 % of control and the T/C ([2]; T/C endpoint: median survival time, dose: 500.0 mg/kg/injection, schedule: Q ##X015 (oral), vehicle: steroid suspending solution) was 148 % of control.
